Results reported in PubChem BioAssay AID590 (National Center for Advancing Translational Sciences (NCATS), 2007).
Out of some 59,000 compounds screened, about 6,500 (11%) were called active. This list was built around the results that the source calls inconclusive (neither active nor inactive); the mix of calls is not that of the screen. No stated cut-off is given here; in the data, active means max dye-equivalent concentration above about 10 nM; inconclusive means mostly about 1.1 nM to 9.6 nM; inactive means weaker than that.

experiment: qHTS Assay for Spectroscopic Profiling in A350 Spectral Region; settings: Compound autofluorescence, 340/450 nm, Alexa 350 dye-equivalents; active compounds read high
From the text: NIH Molecular Libraries Screening Centers Network [MLSCN]
NIH Chemical Genomics Center [NCGC]
Occasionally, the artifactual effect may originate from the compounds own spectral or other biophysical properties which generally tend to track its assay concentration. Pre-screening/profiling the library with respect to the compounds spectral properties should help one exclude false positives early on. While the most informative fluorescent profiling data set is obtained by performing a full excitation and emission scan of each well by using a monochromator-based plate reader, such an approach is practical only on a very limited scale as scanning each well requires long time. An alternative approach, applied here, is to perform plate reader scans using selected excitation and emission wavelength pairs to generate a multidimensional relational database that correlates compound concentration and the respective relative fluorescence intensity at a given wavelength set. A standard curve of Alexa 350 (A 350) present on each plate as six-point concentration series, was used to compute a normalized fluorescence response, termed dye-equivalent concentration, for each compound at each concentration.
NCGC Assay Protocol Summary:
100 mM Tris buffer, pH 8.0
The wells in columns 1 through 4 of a Kalypsys polypropylene 1536-well compound plate were filled with standard solutions of fluorophore corresponding to the spectral region of interest. Solutions of A 350 were placed in the following wells: I1, J1: 3 mM, I2, J2: 300 uM, I3, J3: 30 uM, I4, J4: zero (DMSO), K1, L1: 3 uM, K2, L2: […], K3, L3: 300 nM, K4, L4: zero (DMSO).
Six uL of buffer were dispensed to 1536-well Greiner black plates. Compounds and dye standards (23 nL) were transferred via Kalypsys PinTool. The plates were incubated for 15 min at room temperature, and then read on ViewLux (Perkin-Elmer) High-throughput CCD imager using 340 nm and 450 nm excitation and emission filter set.
Keywords: NIH Roadmap, MLSCN, MLI, MLSMR, qHTS, NCGC, A350, A-350, Fluorescent Profiling.

SMILES	max dye-equivalent concentration
CC(C)Oc1ccccc1C1CC(=O)Nc2cc3c(cc21)OCCO3 (configuration not stated)	inactive
CCCOC(=O)CSC1=C(C#N)C(c2ccccc2OC)C(C#N)C(=O)N1 (configuration not stated)	inconclusive: 1.2 nM
Cc1cc(=O)oc2cc(OCC(=O)NCCCN3CCOCC3)ccc12	inconclusive: 1.9 nM
O=C(CN(Cc1ccco1)S(=O)(=O)c1cccs1)Nc1ccccc1C(F)(F)F	inactive
CC1CN(C2CCCCC2)c2nc3c(c(=O)[nH]c(=O)n3C)n2C1 (configuration not stated)	inconclusive: 1.2 nM
O=C(CCN1CCN(CC(=O)Nc2ccccc2Cl)CC1)Nc1ccccc1F	inactive
CCOC(=O)CSc1nc(-c2ccc3c(c2)OCO3)ccc1C#N	active: 110 nM
COc1ccccc1C(=O)NC(CCSC)C(=O)NCC(c1ccco1)N(C)C (configuration not stated)	active: 11 nM
Cc1ccc2c(CNCc3ccco3)cc(=O)oc2c1	inconclusive: 1.5 nM
COc1ccc(-c2ccc(SCC(=O)NCc3ccco3)nn2)cc1OC	inactive
CCn1c(N2CCN(C(=O)C34CC5CC(CC(C5)C3)C4)CC2)nc2ccccc21	inconclusive: 1.3 nM
COc1ccc(CC(C(=O)Nc2cc(C)ccc2C)/C(N)=N/O)cc1 (configuration not stated)	inconclusive: 3.5 nM
COc1ccccc1CC(NC(C)=O)C(=O)N1CCN(C(=O)Nc2ccccc2Cl)CC1 (configuration not stated)	inconclusive: 3.3 nM
Cc1sc2nc(CSc3nc4ccccc4c(=O)n3CCCN3CCOCC3)[nH]c(=O)c2c1C	inactive
COc1ccc(Cn2nnnc2C(c2cc3cc(C)cc(C)c3[nH]c2=O)N2CCOCC2)cc1 (configuration not stated)	active: 140 nM
CCn1c(SCC(=O)Nc2nc3ccccc3s2)nnc1-c1ccc(OC)cc1	inconclusive: 1.2 nM
CC1CCN(S(=O)(=O)c2ccc3[nH]c(=O)c(=O)[nH]c3c2)CC1	inconclusive: 1.7 nM
c1cc(-c2noc(CC3CCCCC3)n2)ccn1	inconclusive: 1.5 nM
Cc1cc(=O)[nH]c(/N=C(\N)Nc2ccc(Cl)cc2)n1	inactive
CC(=O)NC(Cc1ccc(F)cc1)C(=O)N1CCN(C(=O)NCc2ccccc2)CC1 (configuration not stated)	inactive
COc1ccc(OC)c(C2=NO[C@@H]3C(=O)N(c4cc(Cl)ccc4OC)C(=O)[C@H]23)c1	inconclusive: 4 nM
Cc1nc2cnc(Nc3ccccc3)nc2n(C2CC2)c1=O	inactive
CC(C)NC[C@H]1CCc2cc(CO)c([N+](=O)[O-])cc2N1	inactive

A portion of the results above, as a working copy:
SMILES	max dye-equivalent concentration
CC1CN(C2CCCCC2)c2nc3c(c(=O)[nH]c(=O)n3C)n2C1 (configuration not stated)	inconclusive: 1.2 nM
O=C(CCN1CCN(CC(=O)Nc2ccccc2Cl)CC1)Nc1ccccc1F	inactive
CCOC(=O)CSc1nc(-c2ccc3c(c2)OCO3)ccc1C#N	active: 110 nM

Additional structures follow:

SMILES	max dye-equivalent concentration
CCOC(=O)C1CCN(c2nc3ccccc3nc2C(C#N)C(=O)NCCc2ccccc2)CC1 (configuration not stated)	inconclusive: 5.2 nM
CCCc1cc(=O)n2c(nc3ccccc32)[nH]1	active: 21 nM
CC(=O)C(C)Oc1cc(C)cc2oc(=O)c(C)c(C)c12 (configuration not stated)	active: 19 nM
Cc1nc(N)nc2ccccc12	active: 480 nM
CCOC(=O)c1cnn2c(C(F)(F)F)cc(-c3cn(C)nc3C)nc12	active: 1300 nM
Cc1nn(-c2ccc(F)cc2)c2sc(C(=O)N3CCCCCC3)cc12	inconclusive: 1.3 nM
COc1ncc2nc(-c3cc(F)cc(F)c3)c(=O)n(CCC#N)c2n1	inconclusive: 8.3 nM
CN(C)c1ccc(C(=C2C=CC(=[N+](C)C)C=C2)c2c(O)c(S(=O)(=O)O)cc3cc(S(=O)(=O)O)ccc23)cc1	inconclusive: 2 nM
COC(=O)c1cc(NCc2c(F)cccc2Cl)ccc1N1CCOCC1	inconclusive: 1.4 nM
CCC(C)(C(=O)NC1CCCC1)N(C(=O)c1cnccn1)c1c(C)n(C)n(-c2ccccc2)c1=O (configuration not stated)	inactive
CN(C)C(=O)CN1C(=O)C2CCCCN2C(=O)c2ccccc21 (configuration not stated)	inconclusive: 6.4 nM
Cc1c2c(nc3c(C(=O)NC4CC4)cnn13)CCCC2	inconclusive: 1.2 nM
O=C1CCN2C=Nc3cccc4ccc1c2c34	active: 14 nM
CCN(CC)S(=O)(=O)c1cccc(-c2nnc(SCC(N)=O)n2CCc2ccccc2)c1	inactive
COc1ccccc1-c1cc(C(=O)Nc2ccc(F)cc2F)no1	inactive
CCCn1c(=O)[nH]c(=O)c2c1nc(-c1ccccc1OC(F)F)n2CCOC	inconclusive: 3.8 nM
CC(OC(=O)c1cccc(NS(C)(=O)=O)c1)C(=O)Nc1ccc(N2CCOCC2)cc1 (configuration not stated)	inconclusive: 1.2 nM
CCn1c2ccccc2c2cc(/C=N/n3cnnc3)ccc21	active: 310 nM
COc1ccc(-n2c(N)c(-c3nc4ccccc4n3C)sc2=S)cc1	inconclusive: 3.7 nM
Cc1ccc(-c2nc(C3CCN(S(=O)(=O)c4ccc(C(F)(F)F)cc4)CC3)no2)cc1	inconclusive: 6.4 nM
CC1Cc2ccccc2N1C(=O)COc1cccc(-n2cnnn2)c1 (configuration not stated)	inactive
CCOc1[nH]c(/N=C/c2ccco2)c(C#N)c1C#N	inconclusive: 4.2 nM
Cc1ccc(OC[C@H](O)[C@H](C)NC(C)C)c2c1CCC2	inactive

Exported bar-delimited: two of the compounds above
SMILES | max dye-equivalent concentration
COc1ccc(OC)c(C2=NO[C@@H]3C(=O)N(c4cc(Cl)ccc4OC)C(=O)[C@H]23)c1 | inconclusive: 4 nM
CC(OC(=O)c1cccc(NS(C)(=O)=O)c1)C(=O)Nc1ccc(N2CCOCC2)cc1 (configuration not stated) | inconclusive: 1.2 nM

Carrying on:

SMILES	max dye-equivalent concentration
CCCCOc1ccc(C(=O)Nc2ccc(N3CCN(C(=O)C(C)C)CC3)cc2)cc1	inconclusive: 1.5 nM
N#CCCn1c(=O)c(-c2ccc(F)cc2)nc2cnc(OCc3ccccc3)nc21	inconclusive: 6.8 nM
COc1ccc(S(=O)(=O)NCCSC(C)(C)C)cc1Cl	inactive
CCOc1ccc(OCC)c(NC(=O)C2CCN(S(=O)(=O)c3cnc[nH]3)CC2)c1	inactive
Cn1c(COc2ccc3ccccc3c2)nnc1SCC(=O)O	inconclusive: 1.4 nM
CCN(CC)S(=O)(=O)c1ccc2c(c1)nc(CCC(=O)OCc1c(C)noc1C)n2C	inactive
CCn1cnc2cc(NCc3nc4ccccc4n3C)ccc21	inactive
C=CCSc1nc2ccccc2n1Cc1nnc(-c2cccs2)o1	active: 22 nM
O=C1NC2(CCCCC2)Oc2ccccc21	inconclusive: 2 nM
CCN1C(=S)SC(=O)C1=C1C=C(C)N(CCOC)C(C)=C1	inactive
O=C1c2cccnc2C(=O)N1c1ccccc1-c1ccccc1	inconclusive: 1.2 nM
CN(C)c1ccc(-c2cc(NCc3cccnc3)ncn2)cc1	active: 260 nM
O=C(CCS(=O)(=O)c1ccc(Br)cc1)NCc1cccs1	active: 11 nM
Oc1oc(-c2ccco2)nc1C=Nc1ccccc1	active: 18 nM
Cc1nc(SCC(=O)CC(=O)OC(C)C)c(C#N)c(C)c1C	inconclusive: 4.8 nM
CCOC(=O)c1[nH]nc2c1C(=O)N(Cc1ccccc1)C2=O	inconclusive: 2.2 nM
COCCn1nnnc1CN(Cc1cccnc1)Cc1cc2cc(OC)ccc2[nH]c1=O	active: 270 nM
O=C(O)c1cc(S(=O)(=O)NCC2CCCO2)ccc1Cl (configuration not stated)	inconclusive: 2.1 nM
O=C(Nc1nc2ccc(S(=O)(=O)N3CCCC3)cc2s1)C1CCCO1 (configuration not stated)	inactive
Cc1cc(=O)[nH]c2cc3oc4ccccc4c3cc12	active: 27 nM
O=C(CN1C(=O)c2cccc3cccc1c23)Nc1cccnc1	active: 20 nM
CCCc1nc(N)c(C#N)c(-c2ccco2)c1CC	active: 58 nM
CCN(CC)C(=O)c1n[nH]c(=O)c2ccccc12	inconclusive: 1.2 nM

SMILES	max dye-equivalent concentration
CCOc1ccc(-c2nnc3ccc(SCC(=O)NCc4ccco4)nn23)cc1	active: 25 nM
COc1ccc(CCNS(=O)(=O)c2cccc(S(=O)(=O)N3CCCC3)c2)cc1OC	inconclusive: 2.9 nM
CCC(CC)COC(=O)C(C#N)c1nc2ccccc2nc1N1CCN(CC)CC1 (configuration not stated)	inconclusive: 5.8 nM
N#Cc1cnc(SCCc2ccccc2)nc1N	inconclusive: 4.3 nM
CCOC(=O)C1CCN(C(=O)C2(NC(=O)Nc3ccccc3Cl)CCCCC2)CC1	inconclusive: 1.1 nM
CC(C)NC[C@@H](O)COc1ccc(CCOCC2CC2)cc1	inactive
CC(C)Cc1nc(N2CCCCC2)c(C#N)c2c1CCC2	active: 51 nM
N#Cc1nc(-c2cccs2)oc1NCc1ccccc1	active: 560 nM
CCOC(=O)C1=C(C)NC(=O)NC1c1ccc(Cl)cc1Cl (configuration not stated)	inactive
Cc1cccn2c(=O)c3cc(C(=O)N4CCc5ccccc5C4)n(C)c3nc12	active: 540 nM
CCN(CCCNC(=O)CCc1nc(-c2ccc(OC)cc2)no1)c1cccc(C)c1	inactive
O=C(C1COc2ccccc2O1)N1CCN(c2ccc(F)cc2)CC1 (configuration not stated)	inconclusive: 1.7 nM
O=C(Nc1ncnc2sc3c(c12)CCCCC3)c1ccco1	active: 16 nM
CCc1c(C)nc(SCC(=O)CC(=O)OC(C)C)c(C#N)c1C	inactive
COC(=O)c1ccc(CSc2nc(-c3ccco3)cc(C(F)(F)F)n2)o1	inconclusive: 5.5 nM
COc1cccc(NC(=O)c2ocnc2C)c1	inconclusive: 1.2 nM
O=C(Nc1ccc(-c2noc(COc3ccccc3Cl)n2)cc1)c1ccco1	inactive
Cc1cccc(-c2c3c(=O)n(C)c(=O)n(C)c3cn2CCO)c1	inconclusive: 2.4 nM
CC1CCN(C(=O)C(NS(=O)(=O)c2cccc3nsnc23)c2ccccc2)CC1 (configuration not stated)	inconclusive: 2 nM
Cn1c(=O)c2c(nc(Br)n2CCc2ccccc2)n(C)c1=O	inconclusive: 1.5 nM
CN1CCN(CC#CCn2c3ccccc3c3ccccc32)CC1	inconclusive: 6.5 nM
COc1ccc2ncn(-c3ccccc3)c2c1	inactive
C=CCn1c(SCC(=O)NC(=O)NCc2ccco2)nc2sc(C)c(C)c2c1=O	inconclusive: 1.8 nM
